Test results published in PubChem BioAssay AID1487 (National Center for Advancing Translational Sciences (NCATS), 2009).
This is one part of the list. The main result of the screen is listed elsewhere. These columns were measured beside it and carry no call. Compounds called inactive in the main read-out are mostly missing here. Potencies come from curve fits of mixed quality, noted in brackets.

Assay: qHTS Assay for Modulators of Lamin A Splicing
Details: HeLa LMNA splicing GFP/RFP minigene ratio, 48 h
In short: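 S3 HeLa stable clones carrying a lamin A-EGFP splicing minigene plus DsRed2 were seeded at 600 cells/well in Opti-MEM with 2% FBS, pin-dosed and incubated 48 h at 37°C. Acumen cytometry (488 nm) gave the GFP/RFP total-intensity ratio.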

[1] = measured here: GFP splicing reporter channel
[2] = measured here: RFP viability control channel

Row | SMILES | AC50 [1] | AC50 [2]
1 | O=C(CC1SC(=Nc2ccccc2)N(Cc2ccccn2)C1=O)Nc1cccc(Cl)c1 (stereo unspecified) | 17.8 µM [falling, single point] | 
2 | N#Cc1cc(-c2ccccc2)oc1NC(=O)c1ccccc1 | 12.6 µM [rising, partial curve] | 35.5 µM [rising, single point]
3 | CCCCn1nnnc1NCc1cc(OC)c(OC)cc1OC |  | 35.5 µM [rising, single point]
4 | CC1=C(C)CS(=O)N(S(=O)(=O)c2ccc(Cl)cc2)C1 (stereo unspecified) | 35.5 µM [falling, single point] | 35.5 µM [falling, single point]
5 | O=C(NCc1ccco1)/C(=C/c1ccc(C(F)(F)F)cc1)c1nc2ccccc2[nH]1 | 6.31 µM [rising, full curve] | 4.47 µM [rising, partial curve]
6 | COc1ccc(Nc2ccc(N3C(=O)CC(C)C3=O)cc2[N+](=O)[O-])cc1OC (stereo unspecified) | 0.0398 µM [rising, full curve] | 
7 | N=C(N)Cc1ccccc1Sc1ccccc1 | 28.2 µM [rising, single point] | 31.6 µM [rising, single point]
8 | O=C1O/C(=C\C(=O)N2CCOCC2)c2ccccc21 | 6.31 µM [falling, single point] | 5.62 µM [falling, single point]
9 | CCc1ccc(C2=NN(CCC(=O)NCCc3ccc(Cl)cc3)C(=O)CC2)cc1 | 11.2 µM [rising, partial curve, poor fit] | 12.6 µM [rising, partial curve]
10 | CC(=O)N1CCCc2cc(S(=O)(=O)N3CCCC(C(=O)N4CCN(c5cc(C)ccc5C)CC4)C3)ccc21 (stereo unspecified) |  | 0.02 µM [rising, full curve, poor fit]
11 | O=C(O)C1CCCCC1C(=O)Nc1cc(C(F)(F)F)ccc1Cl (stereo unspecified) | 20 µM [falling, partial curve, poor fit] | 0.0224 µM [falling, full curve, poor fit]
12 | Cc1nc(NCc2cccnc2)c2c3c(sc2n1)CCCC3 | 0.00355 µM [rising, full curve, poor fit] | 
13 | Oc1c(CN2CCN(c3ccccn3)CC2)cc(Cl)c2cccnc12 |  | 12.6 µM [rising, partial curve]
14 | N#CCCN/N=C(\Cc1nc2ccccc2[nH]1)c1ccccc1 |  | 15.8 µM [rising, single point]
15 | O=C(Nc1cccc(S(=O)(=O)Nc2ccc(Cl)cc2)c1)c1ccc(Cl)nc1 |  | 0.562 µM [rising, full curve, poor fit]
16 | CCOC(=O)Cn1nnnc1C(C(C)C)N(Cc1cc2c(C)cc(C)cc2[nH]c1=O)C1CCCC1 (stereo unspecified) |  | 31.6 µM [rising, single point]
17 | C=CCN1CCc2c(cc(O)c(O)c2Br)[C@@H](c2ccccc2)C1 | 22.4 µM [falling, single point] | 
18 | CCOC(=O)c1cnc2ccc(OCC)cc2c1N(C)Cc1ccccc1 | 2 µM [rising, single point] | 12.6 µM [rising, single point]
19 | O=C(COc1cccc2ccccc12)N1CCN(c2ccccc2)CC1 | 11.2 µM [rising, partial curve] | 17.8 µM [rising, single point]
20 | O=C(COC(=O)c1ccc(Cl)nc1)NCc1cccs1 |  | 1.41 µM [falling, partial curve, poor fit]
21 | O=C(Nc1ccc(Cl)cc1)Nc1ccc(N2CCCC2)c(S(=O)(=O)Nc2ccccc2Cl)c1 |  | 5.62 µM [rising, single point]
22 | Cc1ccc(/C=C2/SC(=S)N(CCC(=O)N3CCN(C)CC3)C2=O)cc1 |  | 28.2 µM [rising, single point]
23 | COc1ccccc1N1CCN(C(=O)COc2ccc(Cl)cc2Br)CC1 | 20 µM [rising, partial curve, poor fit] | 25.1 µM [rising, single point]
24 | CCOC(=O)CC(=O)CSc1nc(-c2cccnc2)ccc1C#N | 0.0562 µM [falling, full curve, poor fit] | 0.0501 µM [falling, full curve]
25 | O=C(NCCO)C1CCN(C(=O)c2ccc(-c3ccccc3)cc2)CC1 |  | 39.8 µM [falling, partial curve, poor fit]
26 | CC(C)(C)OC(=O)COc1cc(O)c2c(=O)cc(-c3ccccc3)oc2c1 |  | 10 µM [rising, partial curve]
27 | CCOc1cccc2sc(N(CCN(CC)CC)C(=O)c3ccco3)nc12 | 10 µM [falling, partial curve, poor fit] | 

Row | SMILES | AC50 [1] | AC50 [2]
28 | Cc1ccc2nc(-c3ccc(NC(=S)NC(=O)C(C)C)cc3)sc2c1 | 0.398 µM [falling, full curve, poor fit] | 
29 | CC(C)NC(=O)CSc1nnc(C2CC2)n1-c1ccccc1 | 14.1 µM [falling, single point] | 14.1 µM [falling, partial curve]
30 | Cc1ccc(-n2[nH]c(C)c(/C=N/N3C(=O)c4cccc5cccc(c45)C3=O)c2=O)cc1 | 12.6 µM [falling, partial curve, poor fit] | 
31 | COc1ccc(NC(=O)CCN2CCN(S(=O)(=O)c3cc(Cl)ccc3Cl)CC2)cc1 | 35.5 µM [rising, single point] | 35.5 µM [rising, single point]
32 | CCC(C)NC(=O)c1nc2c(nnn2Cc2ccccc2Cl)c(=O)[nH]1 (stereo unspecified) | 2.24 µM [rising, partial curve] | 1.41 µM [rising, partial curve]
33 | O=C(NC(=S)Nc1cnc2ccccc2c1)c1ccccc1 |  | 0.0316 µM [falling, full curve, poor fit]
34 | Cc1sc2nc(CSc3ccccc3)nc(N3CCOCC3)c2c1C | 20 µM [rising, single point] | 0.282 µM [rising, full curve, poor fit]
35 | CN(CC(=O)Nc1ccc(Cl)cc1)CC(=O)Nc1cc(Cl)ccc1C#N | 35.5 µM [rising, single point] | 31.6 µM [rising, single point]
36 | CCOC(=O)c1ccc(NC(=O)CN2C(=O)NC3(CCC(C)CC3)C2=O)cc1 (stereo unspecified) | 0.355 µM [falling, full curve, poor fit] | 
37 | Cc1cccc(-n2c(SCC(=O)c3ccccc3)nnc2-c2ccc(Br)cc2)c1 |  | 10 µM [falling, partial curve]
38 | O=C1C(Cc2c[nH]c3ccccc23)NC(=S)N1Cc1ccccc1 (stereo unspecified) | 3.98 µM [rising, single point] | 
39 | Cc1cc(NC(=O)Nc2cccc([N+](=O)[O-])c2)no1 | 0.02 µM [falling, full curve, poor fit] | 
40 | COc1ccccc1N1CCN(C(=O)c2cc3ccc4ccc(C)[nH]c4c3n2)CC1 |  | 14.1 µM [rising, single point]
41 | O=S(=O)(c1cccc2nsnc12)N1CCN(C/C=C/c2ccccc2)CC1 | 25.1 µM [rising, partial curve, poor fit] | 35.5 µM [rising, single point]
42 | O=C(COc1ccccc1)Nc1ccc2c(c1)C(=O)N(CC1CCCO1)C2=O (stereo unspecified) | 0.282 µM [rising, full curve] | 
43 | Cc1cccc(C2(c3cccc(C)c3)CC2C(=O)Nc2ccc([N+](=O)[O-])cc2O)c1 (stereo unspecified) | 35.5 µM [falling, single point] | 2.82 µM [rising, single point]
44 | COc1cc2cc(CN(CCCN3CCOCC3)C(=O)Nc3ccccc3F)c(=O)[nH]c2cc1OC | 0.282 µM [rising, full curve] | 0.2 µM [rising, full curve]
45 | Cc1nc(Nc2ccc(S(=O)(=O)N3CCCC3)cc2)c2nnn(Cc3ccccc3)c2n1 |  | 0.316 µM [rising, partial curve, poor fit]
46 | COc1ccc(C(=O)O/N=C(\N)Cc2ccc(Cl)c(Cl)c2)cc1OC | 25.1 µM [falling, partial curve] | 22.4 µM [falling, partial curve]
47 | Cc1nc(N2CCN(c3ccccc3)CC2)c2c3c(sc2n1)CCC3 | 14.1 µM [rising, partial curve] | 28.2 µM [rising, single point]
48 | Cc1cccc(-n2c(O)c(C=NCCCN3CCOCC3)c3ccccc3c2=O)c1 |  | 17.8 µM [rising, single point]
49 | CCC(=O)Nc1ccc(C(=O)NCc2ccccn2)cc1 |  | 0.0251 µM [falling, full curve, poor fit]
50 | Cc1cc(C)n(Cc2ccc(NC(=O)c3nn(C)cc3[N+](=O)[O-])cc2)n1 | 28.2 µM [falling, single point] | 
51 | Cn1c(NC(=O)c2ccccc2NC(=O)C(C)(C)C)nc2ccccc21 |  | 20 µM [rising, partial curve, poor fit]
52 | COc1ccc(NC(=O)c2ccc(Cl)c(S(=O)(=O)N3CCc4ccccc4C3)c2)cn1 | 3.98 µM [rising, single point] | 
53 | COc1ccc2[nH]cc(C(O)CN3CCN(c4ccccc4)CC3)c2c1 (stereo unspecified) |  | 22.4 µM [rising, single point]
54 | COc1ccccc1C(=O)Nc1c(C)n(C)n(-c2ccccc2)c1=O | 5.62 µM [rising, single point] | 5.62 µM [rising, single point]

Single values from the list:
Under AC50 [2], Cc1cccc(C2(c3cccc(C)c3)CC2C(=O)Nc2ccc([N+](=O)[O-])cc2O)c1 (stereo unspecified) reads 2.82 µM [rising, single point]
Under AC50 [1], CCC(C)NC(=O)c1nc2c(nnn2Cc2ccccc2Cl)c(=O)[nH]1 (stereo unspecified) reads 2.24 µM [rising, partial curve]
